Assay results from PubChem BioAssay AID540276 (National Center for Advancing Translational Sciences (NCATS), 2011).
“And” between values parts separate entries of the source, which are not always exact repeats. Equal values may be shown once. In all, about 300,000 compounds went through this assay and about 5,400 (1.8%) were called active. Inconclusive means that the source gave no clear call. Such entries were picked first, then a sample of the others. Calls follow the shape of the full dose curve; tested in HEK293 cells. A potency beside an inconclusive call is a rough fit, not a confirmed value.

assay: qHTS for inhibitors of binding or entry into cells for Marburg Virus; conditions: Marburg virus pseudotyped entry inhibition, cell reporter; series mostly up to 37.8 µM
Potency is read from the fitted curve at half-maximal effect.

SMILES	Potency
CCN1/C(=C2/OC(=S)N(C)C2=O)Sc2ccccc21	inactive
CCOC(=O)c1ccc(NC(=O)C2(c3ccc(OC)cc3)CCCC2)cc1	inconclusive: 22.4 µM [inhibitor, single point]
Cc1ccc(NC(=O)Cn2c(O)c(N=NC(=O)c3ccncc3)c3ccccc32)cc1	inconclusive: 6.31 µM [inhibitor, single point]
CCOC(=O)c1ccc(Oc2nc(NC(C)(C)C)nc(N(C)C)n2)cc1	inconclusive: 22.4 µM [inhibitor, single point]
COc1ccc(N2CCN(C(c3cccs3)C(C)NS(=O)(=O)c3ccccc3)CC2)cc1 (stereo not given)	inconclusive: 11.2 µM [inhibitor, partial curve, poor fit]
Cc1ccnc(NC(=O)CCNC(=O)c2ccccc2Cl)c1	inconclusive: 35.5 µM [activator, single point]
COc1ccc(CCNCc2c(C(=O)O)c(C)n(Cc3c(F)cccc3Cl)c2C)cc1OC	inactive
CCOC(=O)C(Oc1ccc2c(-c3ccc(OC)cc3)cc(=O)oc2c1C)c1ccccc1 (stereo not given)	inconclusive: 16.4 µM [inhibitor, single point]
O=C(Nc1nc2ccccc2[nH]1)c1ccc(Cl)cc1	inconclusive: 1.26 µM [inhibitor, full curve, poor fit]
CC(=O)N1CN(C2CCCC2)Cc2c1sc1c2CCCC1	inactive
C/C(=N\NC(=O)c1ccc(Cl)cc1)c1cccs1	inconclusive: 6.31 µM [inhibitor, partial curve, poor fit]
O=[N+]([O-])c1ccc(/C=N/n2c(CO)nc3ccccc32)s1	inconclusive: 15.8 µM [inhibitor, single point]
Cc1ccc(CNc2nc(C)c(C(=O)N(C)C)s2)cc1	inconclusive: 35.5 µM [activator, single point]
Cc1cc(C(=O)CSc2nnnn2-c2ccccc2)c(C)n1CCc1ccccc1	inconclusive: 6.51 µM [inhibitor, full curve, poor fit]
COC(=O)CSc1nc2ccccc2o1	inactive
O=C(Nc1cccc(C(=O)O)c1)/C(=C\c1ccccc1)NC(=O)c1ccccc1	inconclusive: 0.562 µM [inhibitor, full curve, poor fit]
CC(=O)Nc1ccc2nc(NC(=O)COc3ccccc3Cl)sc2c1	inconclusive: 31.6 µM [activator, single point]
C/C(=N/NC(=O)CNS(=O)(=O)c1ccccc1)c1ccc(Br)cc1	inactive
CSc1c(CC(=O)Nc2ccccc2C(F)(F)F)n(Cc2ccccc2)c2ccccc12	inconclusive: 6.31 µM [inhibitor, single point]
Cc1cccc(NC(=S)NCCC(C)C)c1	active: 1.46 µM
CCN(CC)CCCNC(=O)c1ccc2c(=O)n(Cc3ccc4c(c3)OCO4)c(=S)[nH]c2c1	inconclusive: 35.5 µM [inhibitor, single point]
COCCn1c(SCC(=O)NC2CCCC2)nnc1-c1ccco1	inactive

In another format: results already given
SMILES | Potency
Cc1ccc(NC(=O)Cn2c(O)c(N=NC(=O)c3ccncc3)c3ccccc32)cc1 | inconclusive: 6.31 µM [inhibitor, single point]
CCOC(=O)c1ccc(Oc2nc(NC(C)(C)C)nc(N(C)C)n2)cc1 | inconclusive: 22.4 µM [inhibitor, single point]
COc1ccc(N2CCN(C(c3cccs3)C(C)NS(=O)(=O)c3ccccc3)CC2)cc1 (stereo not given) | inconclusive: 11.2 µM [inhibitor, partial curve, poor fit]
COc1ccc(CCNCc2c(C(=O)O)c(C)n(Cc3c(F)cccc3Cl)c2C)cc1OC | inactive
O=C(Nc1nc2ccccc2[nH]1)c1ccc(Cl)cc1 | inconclusive: 1.26 µM [inhibitor, full curve, poor fit]
O=[N+]([O-])c1ccc(/C=N/n2c(CO)nc3ccccc32)s1 | inconclusive: 15.8 µM [inhibitor, single point]
COC(=O)CSc1nc2ccccc2o1 | inactive
O=C(Nc1cccc(C(=O)O)c1)/C(=C\c1ccccc1)NC(=O)c1ccccc1 | inconclusive: 0.562 µM [inhibitor, full curve, poor fit]
CC(=O)Nc1ccc2nc(NC(=O)COc3ccccc3Cl)sc2c1 | inconclusive: 31.6 µM [activator, single point]
C/C(=N/NC(=O)CNS(=O)(=O)c1ccccc1)c1ccc(Br)cc1 | inactive
CSc1c(CC(=O)Nc2ccccc2C(F)(F)F)n(Cc2ccccc2)c2ccccc12 | inconclusive: 6.31 µM [inhibitor, single point]
Cc1cccc(NC(=S)NCCC(C)C)c1 | active: 1.46 µM
COCCn1c(SCC(=O)NC2CCCC2)nnc1-c1ccco1 | inactive

Additional entries follow.

SMILES	Potency
O=C(Nc1ccccc1C(=O)Nc1ccccn1)c1ccc([N+](=O)[O-])cc1	inactive
CSCCC(NC(=O)C1CCC(C)CC1)C(=O)NCCN1CCC(C)CC1 (stereo not given)	inconclusive: 35.5 µM [inhibitor, single point]
COc1cccc(C2CC(c3cccs3)=NN2C(=O)CCC(=O)O)c1OC (stereo not given)	inconclusive: 14.1 µM [activator, single point]
Cc1ccccc1/C=N/NC(=O)c1sccc1C	inactive
CN(CC(=O)Nc1ccccc1N1CCOCC1)S(=O)(=O)c1ccc(Cl)cc1	inconclusive: 35.5 µM [inhibitor, single point]
COc1ccc(N(C(=O)c2cccc([N+](=O)[O-])c2)S(=O)(=O)c2cccs2)cc1	inconclusive: 28.2 µM [inhibitor, partial curve, poor fit]
CCNC(=S)N(CCN(CC)CC)Cc1cc2cc3c(cc2[nH]c1=O)OCCO3	inconclusive: 17.8 µM [inhibitor, single point]
CN(C(=O)COc1ccc(Cl)cc1Br)C1CCCCC1	inconclusive: 1.12 µM [activator, partial curve, poor fit]
CC(C(=O)NC1CCCC1)N(Cc1ccco1)C(=O)c1snc(C(=O)NC2CCCC2)c1N (stereo not given)	inconclusive: 29.1 µM [inhibitor, single point]
CCOC(=O)CC(SP1(=S)OCC2(CCCCO2)C(C2CCCCO2)O1)C(=O)OCC (stereo not given)	inconclusive: 1.26 µM [inhibitor, partial curve, poor fit]
C=CCN(C(=O)Cc1cccs1)c1nc(-c2ccc(S(C)(=O)=O)cc2)cs1	inconclusive: 16.4 µM [inhibitor, partial curve, poor fit]
O=C(Nc1ccccc1)c1ccc(-c2ccc(Br)cc2)o1	inactive
Cc1cc(C)c(S(=O)(=O)Nc2cc(SCC(=O)O)c(O)c3ccccc23)cc1C	inconclusive: 22.4 µM [inhibitor, single point]
CCC(=O)N(CC)c1nc(-c2cc(OC)ccc2OC)cs1	inactive
O=C(Cn1ncc2c3ccccc3n(Cc3ccc(F)cc3)c2c1=O)N1CCC2(CC1)OCCO2	active: 14.1 µM
CC(C)(C)Nc1nc(-c2ccc3c(c2)CCN3C(=O)C2CC2)cs1	inconclusive: 22.4 µM [inhibitor, single point]
CCOC(=O)c1c(N2C(=O)Nc3ccccc3N2O)sc2c1CCCCC2	inconclusive: 31.6 µM [activator, single point]
COc1cc(C2=NOC(C(=O)NCc3cccs3)C2)cc(OC)c1OC (stereo not given)	inconclusive: 0.651 µM [inhibitor, full curve, poor fit]
Cc1ccc(C(=O)CCNc2ccc(F)c(Cl)c2)o1	inactive
O=C1C=CC2(O[C@H](c3ccccc3)[C@@H](c3ccccc3)O2)[C@H](Sc2ccccc2O)C1	inconclusive: 0.891 µM [inhibitor, full curve, poor fit]
Cc1ccc2cc(CN(Cc3nnnn3C3CCCCC3)CC3CCCO3)c(=O)[nH]c2c1 (stereo not given)	inconclusive: 7.3 µM [inhibitor, partial curve]
Nc1nc(SCC(=O)c2c(N)n(C3CC3)c(=O)[nH]c2=O)n[nH]1	inconclusive: 22.4 µM [activator, single point]

SMILES	Potency
Cc1cc(NC(=O)COC(=O)C2CCN(S(=O)(=O)c3ccc(Cl)cc3)CC2)no1	inconclusive: 0.116 µM [inhibitor, full curve, poor fit]
O=C(CCc1ccc(O)c(O)c1)NNC(=S)Nc1ccc(Br)cc1Cl	inconclusive: 6.31 µM [activator, single point]
O=C(Nc1cc(Cl)ccn1)C1(c2ccccc2)CC1(Cl)Cl (stereo not given)	inconclusive: 3.98 µM [inhibitor, partial curve, poor fit]
Cc1cc(C)nc(Nc2ccccc2Cl)n1	inconclusive: 6.31 µM [inhibitor, single point]
CCOC(=O)c1cnc2ccc(OC)cc2c1NCCc1ccc(OC)c(OC)c1	inconclusive: 2.31 µM [inhibitor, partial curve, poor fit] and inconclusive: 10 µM [inhibitor, partial curve]
CC1CC1C(=O)N(C)CC(=O)Nc1ccc(Cl)c(C(F)(F)F)c1 (stereo not given)	inconclusive: 0.562 µM [inhibitor, partial curve, poor fit]
COc1cccc(OC)c1C(=O)Nc1ccc(C)cc1C(=O)c1ccccc1	inconclusive: 17.8 µM [inhibitor, single point]
CC(=O)N1CCOc2ccc(S(=O)(=O)N3CCC(C(=O)Nc4ccc(F)cc4)CC3)cc21	inactive
CNc1c(NC(=O)c2cc(OC)cc(OC)c2)c(=O)oc2ccccc12	inactive
Cc1oc(C(C)(C)C)cc1C(=O)Nc1ccc2c(c1)OCO2	inconclusive: 35.5 µM [inhibitor, single point]
COc1ccc(OC)c(-c2csc(NC(=O)Cn3[nH]c(=O)c4ccccc4c3=O)n2)c1	inconclusive: 22.4 µM [inhibitor, single point]
COc1cc(/C=C2/C(=O)NC(=O)N(c3ccccc3)C2=O)ccc1O	inconclusive: 3.16 µM [activator, single point]
Cc1cc(C)nc(-n2nc(C)cc2NC(=O)CN2CCc3ccccc3C2)n1	inconclusive: 18.3 µM [inhibitor, single point]
CC1CCN(S(=O)(=O)c2ccc3c(c2)oc(=O)n3CC(=O)NC(C)c2ccccc2)CC1 (stereo not given)	inconclusive: 20 µM [inhibitor, single point]
Cc1ccc(C(=O)Nc2ncc(Cc3ccc(SC(F)F)cc3)s2)cc1	inactive
CCCc1ccc(OC(C)C(=O)Nc2sc3c(c2C(=O)OC)CCCCC3)cc1 (stereo not given)	inactive
Cc1ccc(/C=N/n2cnc3sc(C)c(C)c3c2=O)o1	inconclusive: 6.31 µM [activator, partial curve, poor fit]
Cc1ccc(-c2nc(CS(=O)(=O)CC(=O)N3CCN(c4cccc(C)c4C)CC3)c(C)o2)cc1	inconclusive: 35.5 µM [activator, single point]
COc1ccc(OCC(=O)N2CCN(c3nnc(-c4ccccc4)c4ccccc34)CC2)cc1	inconclusive: 0.58 µM [activator, partial curve, poor fit]
O=C(CCC(=O)c1cccs1)Nc1ccc(N2CCCCC2)cc1	inconclusive: 7.08 µM [activator, partial curve]
CCOc1cccc(CN2CCN(c3cccc(C(F)(F)F)c3)CC2)c1O	inconclusive: 23.1 µM [inhibitor, single point]
